In article PMC9715692:
Results are given in words; binding and its absence hold for the method and conditions named. Some entries that bind do so weakly or less than the wild type.

The chains behind the UniProt entries cited, without tags or fusion partners. Residues count along the entry.
UniProt P9WJU0: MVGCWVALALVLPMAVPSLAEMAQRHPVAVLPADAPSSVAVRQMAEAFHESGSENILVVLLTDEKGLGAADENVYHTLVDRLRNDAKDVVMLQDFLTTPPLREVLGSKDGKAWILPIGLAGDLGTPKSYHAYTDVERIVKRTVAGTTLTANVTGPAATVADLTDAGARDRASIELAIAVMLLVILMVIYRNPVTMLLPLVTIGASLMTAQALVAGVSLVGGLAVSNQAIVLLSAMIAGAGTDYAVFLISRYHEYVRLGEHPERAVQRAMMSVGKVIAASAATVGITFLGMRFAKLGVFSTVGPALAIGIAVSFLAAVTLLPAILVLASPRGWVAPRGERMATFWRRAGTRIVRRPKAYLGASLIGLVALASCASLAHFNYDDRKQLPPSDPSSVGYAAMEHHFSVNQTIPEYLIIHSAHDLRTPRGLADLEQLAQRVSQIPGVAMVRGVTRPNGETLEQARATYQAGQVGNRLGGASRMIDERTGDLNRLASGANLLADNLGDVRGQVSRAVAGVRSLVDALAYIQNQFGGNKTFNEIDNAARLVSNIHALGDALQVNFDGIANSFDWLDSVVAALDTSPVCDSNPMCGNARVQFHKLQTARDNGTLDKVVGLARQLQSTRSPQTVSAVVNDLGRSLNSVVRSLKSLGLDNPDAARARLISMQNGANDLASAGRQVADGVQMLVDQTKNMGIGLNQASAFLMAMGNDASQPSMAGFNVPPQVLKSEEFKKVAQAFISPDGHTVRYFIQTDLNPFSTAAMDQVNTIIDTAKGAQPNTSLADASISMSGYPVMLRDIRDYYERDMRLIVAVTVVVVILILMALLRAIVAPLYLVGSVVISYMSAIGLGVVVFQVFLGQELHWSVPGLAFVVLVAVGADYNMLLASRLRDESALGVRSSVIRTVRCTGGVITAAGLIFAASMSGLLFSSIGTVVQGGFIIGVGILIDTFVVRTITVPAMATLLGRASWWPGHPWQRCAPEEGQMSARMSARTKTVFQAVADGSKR
UniProt P01579, residues 24-161: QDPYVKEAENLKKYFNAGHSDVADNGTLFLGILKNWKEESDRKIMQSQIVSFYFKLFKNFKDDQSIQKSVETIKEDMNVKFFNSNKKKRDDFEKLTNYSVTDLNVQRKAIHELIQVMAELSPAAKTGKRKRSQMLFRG
UniProt P01375, residues 77-233: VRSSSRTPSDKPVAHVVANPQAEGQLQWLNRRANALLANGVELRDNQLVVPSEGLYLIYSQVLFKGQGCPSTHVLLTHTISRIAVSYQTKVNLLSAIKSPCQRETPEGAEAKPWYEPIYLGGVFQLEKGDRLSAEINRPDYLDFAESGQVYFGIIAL

Key:
[1] = biological target: mycobacterium membrane protein large 10 (MmpL10) of Mtb H37Rv (Mycobacterium tuberculosis H37Rv (endogenous)) (UniProt P9WJU0); assay: far-Western, overlay or dot blot; whole cell lysate separated on a non-denaturing polyacrylamide gel without SDS, transferred to PVDF, incubated with 5 μg IFN-γ overnight at 4 °C, detected with anti-human IFN-γ antibody; for Mtb H37Rv the matching band of the Coomassie-stained gel was analysed by LC-MS/MS; only the binder purified
[2] = biological target: mycobacterium membrane protein large 10 (MmpL10) of Mtb H37Rv (Mycobacterium tuberculosis H37Rv (endogenous)) (UniProt P9WJU0); assay: flow cytometry on cells; whole bacteria fixed in 4% PFA mixed with varying concentrations of cytokine overnight at 4 °C; pellets stained with anti-IFN-γ Brilliant Violet 421 (clone 4S.B3) or anti-TNF-α Alexa Fluor 700 (clone MAb11); only the binder purified

Substance: recombinant human Interferon-γ (from UniProt P01579 24-161) (ligand)
- binding [1]: binds
- binding [2]: binds

Substance: recombinant human TNF-α (from UniProt P01375 77-233) (ligand)
- binding [2]: no binding
